Reference: PMC10273071
These are yes or no findings as the source states them, for the method shown. Some results given as binding are weak or reduced against the parent protein; the word gives no strength.

Amino acid sequences for entries named in this document (tags omitted).
UniProt P30366: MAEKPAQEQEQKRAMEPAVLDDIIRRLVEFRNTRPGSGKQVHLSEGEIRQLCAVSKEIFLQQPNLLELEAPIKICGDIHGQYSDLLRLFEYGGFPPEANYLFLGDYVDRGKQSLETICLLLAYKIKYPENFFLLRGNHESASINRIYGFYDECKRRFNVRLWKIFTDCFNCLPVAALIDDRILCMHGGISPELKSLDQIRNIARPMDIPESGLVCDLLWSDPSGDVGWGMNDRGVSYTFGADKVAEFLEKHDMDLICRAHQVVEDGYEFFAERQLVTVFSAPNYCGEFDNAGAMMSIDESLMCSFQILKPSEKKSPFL

Target: RipAS (R. solanacearum UW551), yeast two-hybrid fusion (Ralstonia solanacearum UW551)
Assay: two-hybrid

TOPP1 (AT2G29400) of Arabidopsis, yeast two-hybrid fusion (from UniProt P30366 1-318) (enzyme)
binding: binds
